According to US4244869A, “Benzodiazepine derivatives and process of making them” (Kali-Chemie A.G., priority 1972, dated 1981):

Assay: Acute seven-day toxicity (LD50), single oral application
Set-up: species or system mice (white NMRI)
Settings: mouse, in vivo, p.o., mice
Experimental: The acute seven-day toxicity is determined by a single application per os and intraperitoneally to white fasting NMRI mice. The computation of the LD50 values was effected via EDV by a probit analysis (Cavalli-Sforza, publisher Gustav Fischer, 1964, Grundbegriffe der Biometrie).

CN1C(=O)CN=C(c2ccccc2)c2cc(Cl)ccc21 [Standard II, 7-chloro-1-methyl-5-phenyl-1,3-dihydro-2H-1,4-benzodiazepin-2-one, reference compound]
LD50 at 168 h: 887 mg/kg
